Values of other authors, collected in patent publication US10010584B2, “Treatment of depressive disorders” (Blanchette Rockefeller Neuroscience Institute, priority 2004, dated 2018).
For at least one compound, name, drawing or mass did not settle the structure.

Conditions: cited from earlier work

CCC/C=C/C=C/C(=O)O[C@H]1/C(=C/C(=O)OC)C[C@H]2C[C@H]([C@@H](C)O)OC(=O)C[C@H](O)C[C@@H]3C[C@H](OC(C)=O)C(C)(C)[C@](O)(C[C@@H]4C/C(=C/C(=O)OC)C[C@H](/C=C/C(C)(C)[C@]1(O)O2)O4)O3 [Bryostatin 1, bryostatin-1]
tumor promotion activity: devoid of tumor promotion activity
